The results in this text go back to doi:10.1101/2020.02.28.969618.

Sequences of proteins named here, by UniProt entry; tags and fusion partners are left off. A change or cut given only in a name is not applied to a line headed by its entry. Residues count along the entry.
UniProt P53115: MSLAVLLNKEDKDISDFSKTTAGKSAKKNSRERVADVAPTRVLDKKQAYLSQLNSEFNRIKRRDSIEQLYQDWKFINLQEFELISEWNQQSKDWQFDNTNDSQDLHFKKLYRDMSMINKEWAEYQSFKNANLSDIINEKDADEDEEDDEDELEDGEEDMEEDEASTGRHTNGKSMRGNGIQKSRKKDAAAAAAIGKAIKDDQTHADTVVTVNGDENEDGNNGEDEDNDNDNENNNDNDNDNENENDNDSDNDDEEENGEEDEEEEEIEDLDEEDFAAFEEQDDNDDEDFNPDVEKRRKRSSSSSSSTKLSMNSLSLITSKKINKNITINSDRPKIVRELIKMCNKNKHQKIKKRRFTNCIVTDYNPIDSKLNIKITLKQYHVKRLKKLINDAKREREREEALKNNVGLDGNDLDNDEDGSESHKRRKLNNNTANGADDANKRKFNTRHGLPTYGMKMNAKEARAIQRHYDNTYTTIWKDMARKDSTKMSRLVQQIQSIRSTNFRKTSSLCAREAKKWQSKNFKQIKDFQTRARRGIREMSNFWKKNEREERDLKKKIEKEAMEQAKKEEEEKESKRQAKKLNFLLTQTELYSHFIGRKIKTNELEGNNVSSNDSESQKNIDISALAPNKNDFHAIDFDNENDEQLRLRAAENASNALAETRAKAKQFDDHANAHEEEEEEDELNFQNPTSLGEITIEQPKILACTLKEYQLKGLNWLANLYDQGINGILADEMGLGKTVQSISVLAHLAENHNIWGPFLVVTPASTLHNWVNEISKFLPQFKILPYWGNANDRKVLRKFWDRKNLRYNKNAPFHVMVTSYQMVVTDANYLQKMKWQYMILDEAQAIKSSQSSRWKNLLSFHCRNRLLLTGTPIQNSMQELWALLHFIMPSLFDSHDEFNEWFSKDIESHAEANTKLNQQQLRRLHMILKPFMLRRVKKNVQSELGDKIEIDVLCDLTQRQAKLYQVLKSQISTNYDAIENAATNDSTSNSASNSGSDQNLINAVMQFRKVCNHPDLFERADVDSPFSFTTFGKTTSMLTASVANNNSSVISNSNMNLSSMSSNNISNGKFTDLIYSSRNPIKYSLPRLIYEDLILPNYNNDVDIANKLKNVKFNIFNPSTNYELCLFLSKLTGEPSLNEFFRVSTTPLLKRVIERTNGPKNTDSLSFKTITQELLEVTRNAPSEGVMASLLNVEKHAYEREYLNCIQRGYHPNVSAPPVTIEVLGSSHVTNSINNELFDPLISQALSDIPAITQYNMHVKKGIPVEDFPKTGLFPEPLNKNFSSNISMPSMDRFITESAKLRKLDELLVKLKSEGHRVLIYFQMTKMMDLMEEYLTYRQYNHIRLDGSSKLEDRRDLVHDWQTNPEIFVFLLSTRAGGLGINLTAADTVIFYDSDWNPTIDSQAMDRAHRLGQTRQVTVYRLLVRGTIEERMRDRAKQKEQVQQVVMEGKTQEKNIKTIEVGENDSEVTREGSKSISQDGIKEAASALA
Ino80^ΔN (2xFlag), Ino80 ATPase lacking residues 1-461: residues 462-1489 of P53115
UniProt P35189: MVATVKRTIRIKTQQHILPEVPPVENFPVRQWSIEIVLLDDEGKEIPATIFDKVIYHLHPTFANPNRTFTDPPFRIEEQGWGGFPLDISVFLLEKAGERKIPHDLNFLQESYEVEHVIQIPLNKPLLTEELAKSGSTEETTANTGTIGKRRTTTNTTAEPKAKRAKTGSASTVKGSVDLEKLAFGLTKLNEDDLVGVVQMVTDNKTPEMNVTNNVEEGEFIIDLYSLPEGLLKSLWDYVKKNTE

Assay [1] concerns the target Ino80^ΔN (2xFlag), Ino80 ATPase lacking residues 1-461 (S. cerevisiae) (UniProt P53115). Put plainly: co-purification.
Assay [2] concerns the target Ino80 (2xFlag), main ATPase subunit of the S. cerevisiae INO80 complex (S. cerevisiae) (UniProt P53115). Kind of assay: co-purification.

Results are given in words; binding and its absence hold for the method and conditions named. Some binding calls cover weakened binding; strength is not graded here. For some assays here: Where a sequence is shown, tags or fusion partners need not be part of it.

In the case of Taf14 (from UniProt P35189 1-244), the binding result was “no binding” in assay [1] and “binds” in assay [2].

B1: Ies5 (protein, UniProt P40060 1-125)
chain: MPSKDPESVIDKEIRKISARNDELIKQDGTLKREYTTLLRKVSSVITVLNSIDDADTGSAETELPRLISQATVEKVPELKWYNDQISLITEKLEDDEDIEVPEELMDAYTLYKETPLLYNDTHTP
For the molecule B1, the binding entry is given as “no binding” in assay [1] and “binds” in assay [2].

B2: Nhp10 (protein, UniProt Q03435 1-203)
chain: MSVEEKKRRLEELKDQNVVLGLAIQRSRLSVKRLKLEYGVLLERLESRIELDPELNCEDPLPTLASFKQELLTKPFRKSKTKRHKVKERDPNMPKRPTNAYLLYCEMNKERIRQNGSLDVTRDLAEGWKNLNEQDRKPYYKLYSEDRERYQMEMEIYNKKISNIDADDDKEENEQKIKNNEEGSSTKVADSKGGEDGSLVSSN
For the molecule B2, the results for the binding result in assay [1] and in assay [2] were “no binding” and “binds”, respectively.

B3: Ies3 (protein, UniProt Q12345 1-250)
chain: MKFEDLLATNKQVQFAHAATQHYKSVKTPDFLEKDPHHKKFHNADGLNQQGSSTPSTATDANAASTASTHTNTTTFKRHIVAVDDISKMNYEMIKNSPGNVITNANQDEIDISTLKTRLYKDNLYAMNDNFLQAVNDQIVTLNAAEQDQETEDPDLSDDEKIDILTKIQENLLEEYQKLSQKERKWFILKELLLDANVELDLFSNRGRKASHPIAFGAVAIPTNVNANSLAFNRTKRRKINKNGLLENIL
On to B3, for which the binding result was “no binding” in assay [1] and “binds” in assay [2].

B4: Ies4 (protein, UniProt Q08561 1-116)
chain: MSQESSVLSESQEQLANNPKIEDTSPPSANSRDNSKPVLPWDYKNKAIEIKSFSGYKVNFTGWIRRDVREERQRGSEFTASDVKGSDDKATRKKEPADEDPEVKQLEKEGEDGLDS
Turning to B4, the binding result in assay [2] is recorded as “binds”.

B5: Ies6 (protein, UniProt P32617 1-166)
chain: MSGSRGNSSNSSVSNNSNNNNNNDGGDERLLFLRSVGERNEIGFPSRFKSAHYKKPTRRHKSARQLISDENKRINALLTKANKAAESSTAARRLVPKATYFSVEAPPSIRPAKKYCDVTGLKGFYKSPTNNIRYHNAEIYQLIVKPMAPGVDQEYLKLRGANFVLK
In the case of B5, the binding entry in assay [2] is “binds”.

B6: Arp5-His (protein, UniProt P53946 1-755)
chain: MSSRDASLTPLKAVVIDDPPLRQTPEPFDEQSAYNPQSPIAIDFGSSKLRAGFVNHATPTHIFPNALTKFRDRKLNKNFTFVGNDTLLDQAVRSQSRSPFDGPFVTNWNLTEEILDYTFHHLGVVPDNGIPNPILLTERLATVQSQRTNWYQILFETYNVPGVTFGIDSLFSFYNYNPSGNKTGLVISCGHEDTNVIPVVDGAGILTDAKRINWGGHQAVDYLNDLMALKYPYFPTKMSYLQYETMYKDYCYVSRNYDEDIEKILTLENLDTNDVVVEAPFTEVLQPQKTEEELRIQAEKRKETGKRLQEQARLKRMEKLVQKQEEFEYFSKVRDQLIDEPKKKVLSVLQNAGFDDERDFKKYLHSLEQSLKKAQMVEAEDDSHLDEMNEDKTAQKFDLLDIADEDLNEDQIKEKRKQRFLKASQDARQKAKEEKERVAKEEEEKKLKEQQWRETDLNGWIKDKRLKLNKLIKRRKEKLKLRDEMKDRKSQVSQNRMKNLASLAEDNVKQGAKRNRHQATIDNDPNDTFGANDEDWLIYTDITQNPEAFEEALEYEYKDIVELERLLLEHDPNFTEEDTLEAQYDWRNSILHLFLRGPRPHDSENIHEQHQMHLNVERIRVPEVIFQPTMGGQDQAGICELSETILLKKFGSQPGKLSQTSIDMVNNVLITGGNAKVPGLKERIVKEFTGFLPTGTNITVNMSSDPSLDAWKGMAALARNEEQYRKTVISKKEYEEYGPEYIKEHKLGNTKYFED
In the case of B6, in assay [2], the binding entry is on record as “binds”.

B7: Ies1 (protein, UniProt P43579 1-692)
chain: MGKRVYDPIHDTFQLREDNSDETKADSPMQSVKSGSQEEASPSSIQSETETVTTKSIPVIHEIEIDDKNDDDSTQSEEENTNILLNFEPSTVPEATGASTATGPVTTNTVRRKPKESNASKYNRHLKKPDGEPFNRKDIQFSFMQELLMDKRQIFTNVLKPLYKNSIVPINIDGDKLSINVTDKEYDARTFVFNDKLTFAQLYVLTIATSIKCSKILRDKLLLDQQVAFSTCVLALLVNIGRLNTTINFYLEMTSQLRTFHSVPVLQLHANDPKLLQDTPRLKSILKNLPWGNEQLSLMETYKKVDQNDGEVDTVNKFNIINMLFSICDNSGLIDKRFLSKYVEVESKAQEQDMVDEQNEVKETEAENEKQESKAAYATTLFDILDYSKYEPKDRSNILIWLLYIHLETNLSQEEVEESVRFFNGLEDGAPAGKFILRCTERSYDTDPEDELEFGANQRIKRREFMSKMEEGRKRERTNVTEVKKPSIGGDKSEEDGEGEDDKSEETVEETRSLLTPTPILESSSPMTLNRKKVTPQLPKVTPAAPTETEEEITSAAIIDKNDLNLTPLKKYNSSATVNKVDKLISLDLNKHVSENGKTQEEFLADLKKSQVPNRLKRRDIGLIKIFNEFEDIPVASVLGIRGKKRKKFKDNLLGFETDFMKNLGASKKVLLNKIERAEIDDEEATAMFKLE
For B7, the results for the binding entry in assay [1] and in assay [2] were “no binding” and “binds”, respectively.

B8: Ies2 (protein, UniProt P40154 1-320)
chain: MDSEASDIEAELSDSVSAGGEEYIDDDDYTEDIDDQIVTAKSSRRTARRSVPKGVRTSKRIRDKELSVEVDEDYDEEEDVLSPSKKRHLHTRSMDKRQVAATASEKSDIGDSKGNDGEIEDGILEEEESLEKELNRGGGKEVEKSEESYYAQNDVGQKGEEEQDGESGGYEDNEPSISKESDELVSVVNGNGNEEDDEVEATKENTTDSTRSTTTRSKMLLDLLEDGGSKKKLTDEEIQLRRAENARKRKNLSEKRLEEEKQDTINKLLKKRAGKSRSHLPNDDEKNDGSSSFVKPRRPYNSEGMTRILRRYEEDLFCTF
With B8, the binding result in assay [2] is listed as “binds”.
